## Screening data

Source: PubChem BioAssay AID1053133 (Broad Institute, 2014).

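Plate-reader measure of the Venus reporter marking one vaccinia stage in infected cells (the cell line is not named here); read time unknown.
The test concentration is not given here.
Percent change in Venus reporter signal; lower (more negative) values mean stronger inhibition of that viral stage.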

Values are in %.
How 0% and 100% were set is not given here.
Common to all entries: measured here: Venus reporter, other viral stage.
This is a side read-out of the assay, for part of the compounds, not drawn at random.

CC(C)NC(=O)N1[C@H](CO)[C@@H](c2ccc(C#CC3CCCC3)cc2)[C@@H]1C#N read activity change (Venus) -16.58%. C[C@@H]1CN([C@@H](C)CO)S(=O)(=O)c2ccc(-c3ccccc3F)cc2O[C@H]1CN(C)Cc1cccnc1 read activity change (Venus) -37.8%. C[C@@H]1CN([C@H](C)CO)S(=O)(=O)c2ccc(/C=C/c3ccccc3)cc2O[C@@H]1CN(C)C read activity change (Venus) -58.62%. Result for C[C@H]1CCCCO[C@H](CN(C)Cc2ccc(Cl)c(Cl)c2)[C@@H](C)CN([C@@H](C)CO)C(=O)c2cc(N(C)C)ccc2O1 was activity change (Venus) -65.98%.

Result for CN1c2ccc(-c3ccccc3F)cc2[C@H]2[C@H](CCN2S(=O)(=O)c2ccccc2F)[C@H]1CO was activity change (Venus) -24.32%. With Cc1ccc(S(=O)(=O)N(C)C[C@@H]2Oc3ccc(NC(=O)Nc4ccc(C(F)(F)F)cc4)cc3CC(=O)N([C@@H](C)CO)C[C@H]2C)cc1 the assay gave activity change (Venus) -21.47%. CC(C)CC#Cc1ccc([C@@H]2[C@H]3CN(C(=O)c4ccc5c(c4)OCO5)CCCCN3[C@H]2CO)cc1 read activity change (Venus) -63.33%. With N#C[C@H]1[C@H](c2ccc(C#CC3CCCCC3)cc2)[C@H](CO)N1C(=O)Nc1ccc(F)cc1 the assay gave activity change (Venus) -30.43%.

Result for COc1ccc(OC(=O)N(C)C[C@@H]2OCc3ccccc3-c3c(n(C)c4ccccc34)C(=O)N([C@@H](C)CO)C[C@H]2C)cc1 was activity change (Venus) -68.16%. CN1c2ccc(-c3ccccc3F)cc2[C@@H]2[C@@H](CCN2C(=O)NC2CCCCC2)[C@@H]1CO gave activity change (Venus) -53.07%. Result for COc1ccc(CN(C)C[C@H]2OCCCC[C@@H](C)Oc3ccc(NS(=O)(=O)c4ccc(Cl)cc4)cc3C(=O)N([C@@H](C)CO)C[C@@H]2C)cc1 was activity change (Venus) -76.67%. Result for C[C@@H]1CN([C@@H](C)CO)S(=O)(=O)c2ccc(C#C[C@@H](C)O)cc2O[C@@H]1CN(C)Cc1ccc(-c2ccccc2)cc1 was activity change (Venus) -30.74%.

O=C(Nc1cccc(F)c1)N1CCCCN2[C@@H](CO)[C@@H](c3ccc(C#CC4CC4)cc3)[C@@H]2C1 read activity change (Venus) -86.33%. C[C@@H]1CN([C@@H](C)CO)C(=O)c2cc(NC(=O)NC3CCCCC3)ccc2O[C@@H](C)CCCCO[C@H]1CN(C)C(=O)CCC(F)(F)F read activity change (Venus) -27.86%. With O=C1CN(S(=O)(=O)Cc2ccccc2)C[C@@H]2[C@H](c3ccc(C#Cc4cccc(F)c4)cc3)[C@H](CO)N12 the assay gave activity change (Venus) -57.39%. C[C@H](CO)N1C[C@H](C)[C@@H](CN(C)Cc2ccc3c(c2)OCO3)Oc2c(NC(=O)NC3CCCCC3)cccc2C1=O read activity change (Venus) -29.56%.

For CN1C(=O)c2cc(NC(=O)c3cccc(F)c3)ccc2OC[C@H]2O[C@@H](CC(=O)Nc3ccccc3)CC[C@H]21 the result was activity change (Venus) -42.15%. Result for C[C@H]1CCCCO[C@@H](CN(C)C(=O)C2CCCCC2)[C@@H](C)CN([C@@H](C)CO)C(=O)c2cc(NC(=O)C3CCCCC3)ccc2O1 was activity change (Venus) -41.11%. O=C(C[C@H]1CC[C@H]2[C@@H](COC[C@@H](O)CN2CC2CCCC2)O1)NCc1ccc(Cl)cc1 gave activity change (Venus) -41.95%. O=S(=O)(N[C@@H]1CC[C@H](CCn2cc(-c3ccccc3F)nn2)O[C@@H]1CO)c1ccc(Cl)cc1 read activity change (Venus) -29.5%.

CO[C@@H]1CN(C)C(=O)c2cc(NC(=O)C3CCCC3)ccc2OC[C@@H](C)N(C(=O)Nc2ccc(C(F)(F)F)cc2)C[C@H]1C gave activity change (Venus) -44.66%. Result for CC(C)NC(=O)N(C)C[C@H]1Oc2cc(C#Cc3cccc(F)c3)ccc2S(=O)(=O)N([C@H](C)CO)C[C@@H]1C was activity change (Venus) -26.25%. O=C(C[C@H]1CC[C@H]2[C@@H](COC[C@@H](O)CN2S(=O)(=O)c2ccc(Oc3ccccc3)cc2)O1)Nc1ccccc1 read activity change (Venus) -67.12%. CC(C)CC#Cc1cnc2c(c1)C(=O)N([C@@H](C)CO)C[C@@H](C)[C@@H](CN(C)C(=O)CCN1CCCCC1)O2 read activity change (Venus) -32.07%.

CC(C)CC#Cc1ccc2c(c1)O[C@H](CN(C)Cc1ccccn1)[C@@H](C)CN([C@@H](C)CO)S2(=O)=O read activity change (Venus) -60.43%. Result for C[C@H](CO)N1C[C@H](C)[C@@H](CN(C)C(=O)Nc2cccc(F)c2)Oc2cc(/C=C/c3ccccc3)ccc2S1(=O)=O was activity change (Venus) -43.22%. For COc1ccc(S(=O)(=O)N2CC[C@@H]3[C@@H](CO)N(C)c4ccc(-c5ccc(F)cc5)cc4[C@@H]32)cc1 the result was activity change (Venus) -75.87%. With COc1ccc(NC(=O)Nc2ccc3c(c2)C(=O)N([C@@H](C)CO)C[C@@H](C)[C@H](CN(C)Cc2ccccc2)OCCCC[C@@H](C)O3)cc1 the assay gave activity change (Venus) -45.7%.

Result for CNC[C@@H]1Oc2c(NC(=O)Nc3ccc(C(F)(F)F)cc3)cccc2C(=O)N([C@H](C)CO)C[C@H]1C was activity change (Venus) -29.62%. With C[C@H]1CN([C@@H](C)CO)S(=O)(=O)c2ccc(C#Cc3ccccc3F)cc2O[C@H]1CN(C)CC1CCOCC1 the assay gave activity change (Venus) -74.29%. O=C(C[C@H]1CC[C@H]2[C@@H](COC[C@H](O)CN2C(=O)Nc2ccc(Cl)cc2)O1)NCC1CCCCC1 read activity change (Venus) -29.28%. Result for C[C@@H]1CCCCO[C@@H](CN(C)Cc2ccccc2)[C@H](C)CN([C@H](C)CO)C(=O)c2cc(NC(=O)Nc3cccc4ccccc34)ccc2O1 was activity change (Venus) -35%.

The first 4 entries again:

CC(C)NC(=O)N1[C@H](CO)[C@@H](c2ccc(C#CC3CCCC3)cc2)[C@@H]1C#N gave activity change (Venus) -16.58%.
C[C@@H]1CN([C@@H](C)CO)S(=O)(=O)c2ccc(-c3ccccc3F)cc2O[C@H]1CN(C)Cc1cccnc1 gave activity change (Venus) -37.8%.
C[C@@H]1CN([C@H](C)CO)S(=O)(=O)c2ccc(/C=C/c3ccccc3)cc2O[C@@H]1CN(C)C gave activity change (Venus) -58.62%.
C[C@H]1CCCCO[C@H](CN(C)Cc2ccc(Cl)c(Cl)c2)[C@@H](C)CN([C@@H](C)CO)C(=O)c2cc(N(C)C)ccc2O1 gave activity change (Venus) -65.98%.